PubChem BioAssay AID1508588 – Peter MacCallum Cancer Centre, 2020
Aim: 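Which gene losses make BRAF-mutant melanoma cells more responsive to vemurafenib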 (primary screen). System: human WM266.4 melanoma cells (BRAF V600 mutant). Reagents: siRNA pool against human genes, 40 nM. Time to read-out: 96 h from transfection to read-out. Conditions: vemurafenib 300 nM (about IC25), added 48 h after transfection, for 48 h; comparison arm got DMSO vehicle only. Read-out: 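Ratios to non-targeting siRNA for cell gain, counted as DAPI nuclei after minus before drug and averaged over two replicates, and for absorbance-read medium lactate per cell; both binned into fold-change classes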. Reading the numbers: cell gain with vemurafenib: higher = more cell gain than with non-targeting siRNA; lactate per cell with vemurafenib: higher = more lactate made per cell. Rule for the call: 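Enhancement is called by pairing each knock-down's vehicle-arm and drug-arm fold-change classes for viability or glycolysis; which class combinations qualify is not given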. Calls: active = enhances vemurafenib effect; inactive = no enhancement seen.
The whole screen tested about 18,000 reagents; shown is a random part of them. In the full data, 790 (4.4%) got an active call. 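Calls rest on a combination of fold-change classes in drug and vehicle arms, not all shown here.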

The opening 4 records, ahead of the listing:
no.	gene	cell gain with vemurafenib	lactate per cell with vemurafenib	outcome
1	POT1 (protection of telomeres 1)	0.69	0.54	inactive
2	PGAP4 (post-GPI attachment to proteins GalNAc transferase 4)	0.35	1.48	inactive
3	H4C3 (H4 clustered histone 3)	0.77	0.15	active
4	NCAPH (non-SMC condensin I complex subunit H)	0.74	1.73	inactive

The listing, from the start:
no.	gene	cell gain with vemurafenib	lactate per cell with vemurafenib	outcome
1	POT1 (protection of telomeres 1)	0.69	0.54	inactive
2	PGAP4 (post-GPI attachment to proteins GalNAc transferase 4)	0.35	1.48	inactive
3	H4C3 (H4 clustered histone 3)	0.77	0.15	active
4	NCAPH (non-SMC condensin I complex subunit H)	0.74	1.73	inactive
5	BANF2 (BANF family member 2)	0.29	2.25	inactive
6	SCUBE3 (signal peptide, CUB domain and EGF like domain containing 3)	0.85	0.69	inactive
7	KLHL26 (kelch like family member 26)	0.39	0.57	inactive
8	PAX4 (paired box 4)	0.73	1.24	inactive
9	MRPL18 (mitochondrial ribosomal protein L18)	0.94	1.64	inactive
10	SLC22A11	0.82	0.92	inactive
11	TMEM200B (transmembrane protein 200B)	0.85	0.84	inactive
12	GJB7 (gap junction protein beta 7)	0.25	0.72	inactive
13	KDM1A (lysine demethylase 1A)	0.63	0.32	inactive
14	C9orf85 (chromosome 9 open reading frame 85)	0.3	1.52	inactive
15	SMCO4 (single-pass membrane protein with coiled-coil domains 4)	0.71	1.21	inactive
16	NIPBL (NIPBL cohesin loading factor)	0.21	2.19	inactive
17	ZSCAN31 (zinc finger and SCAN domain containing 31)	1.03	1.06	inactive
18	ANKS4B (ankyrin repeat and sterile alpha motif domain containing 4B)	0.85	0.58	inactive
19	ALYREF (Aly/REF export factor)	0.62	0.78	inactive
20	SETD9 (SET domain containing 9)	0.44	0.66	inactive
21	PCDHB13 (protocadherin beta 13)	0.49	0.38	inactive
22	EGFLAM (EGF like, fibronectin type III and laminin G domains)	0.47	0.92	inactive
23	BCL2L11 (BCL2 like 11)	0.45	0.9	inactive
24	PRSS36 (serine protease 36)	0.86	0.86	inactive
25	PAQR9 (progestin and adipoQ receptor family member 9)	0.35	1.5	inactive
26	TBX4 (T-box transcription factor 4)	0.28	1.86	inactive
27	OR4K15 (olfactory receptor family 4 subfamily K member 15)	0.11	0.79	active
28	TRPC1	-0.02	1.34	inactive
29	SOCS5 (suppressor of cytokine signaling 5)	0.89	0.56	inactive
30	CDCA5 (cell division cycle associated 5)	0.25	1.31	inactive
31	IL17A (interleukin 17A)	0.17	0.76	inactive
32	IFRD1 (interferon related developmental regulator 1)	0.62	0.71	inactive
33	SKAP1 (src kinase associated phosphoprotein 1)	0.42	1.09	inactive
34	DNAJA3 (DnaJ heat shock protein family (Hsp40) member A3)	0.53	1.29	inactive
35	TLR8 (toll like receptor 8)	0.5	0.94	inactive
